From patent US6576675B1, “Z-styryl sulfone anticancer agents” (Temple University - Of the Commonwealth System of Higher …, priority 1999, dated 2003)
Some results were stated once for a whole list of compounds, not compound by compound.

These compounds were tested on tumor cells of breast, prostate and ovarian origin (assay: Viability assay (Trypan blue exclusion), kill rates summarised in text). Conditions: 2.5 mM, 72 hours; same range for the three cell types (breast, prostate, ovarian).
Type: cell-based

SMILES | kill rate
O=S(=O)(/C=C\c1ccc(Cl)cc1)Cc1ccc(Cl)cc1 [Example 6, Z-4-Chlorostyryl 4-Chlorobenzylsulfone] | 60-70%
O=S(=O)(/C=C\c1ccc(Cl)cc1)Cc1ccc(F)cc1 [Example 8, Z-4-Chlorostyryl 4-Fluorobenzylsulfone] | over 75%
O=S(=O)(/C=C\c1ccc(F)cc1)Cc1ccc(Cl)cc1 [Example 10, Z-4-Fluorostyryl 4-Chlorobenzylsulfone] | 60-70%
O=S(=O)(/C=C\c1ccc(Br)cc1)Cc1ccc(Cl)cc1 [Example 14, Z-4-Bromostyryl 4-Chlorobenzylsulfone] | over 75%
O=S(=O)(/C=C\c1ccc(Br)cc1)Cc1ccc(F)cc1 [Example 16, Z-4-Bromostyryl 4-Fluorobenzylsulfone] | 60-70%
